Experimental data published in article PMC10163288.
Some of the results follow.

B1: il2ra_site2_2erj_sap_16_mot_c2bf78bdce995293a161f7082e24b401_0001_af2_000000082_0001_17_32_H_._ee6f2efe1cc829cadc28c075f8154135_0001_1_0001_0000200036_0000001_0 … (protein)
chain: SSSDEEVERFAEEVVEELRELVEKGDQEEFNRLATRVIEFVRQHNNDRALYLLWEIMRLNVSSSS
B2: il2ra_site1_1z92_sap_11_mot_add8a691351788dd45ba4deda1838316_0001_1_000000225_0001_37_51_H_._HHH_b1_04072_0001_0000300033_0000001_0_0001_af2pred_0001_af2pred (protein)
chain: SSSSDLEHQAKLIVRAAVEAAGLSEEQEEELQKVARELVERGLSFEEIFRELDRVALELNSSSSS
B3: il2ra_site2_3nfp_normal_mot_49a7c9051cacde34b31d84fabeb7f3ea_0001_af2_000000030_0001_39_52_H_._HHH_b2_06514_af2_0001_0000100001_0000001_1 (protein)
chain: SSSSDEEEKELEELQELLKRLKEEGDRFELLRVLVRASQLAARLGDEEAVRRELELYEELASSSS
B4: il2ra_site2_2erj_normal_mot_HHH_b1_05749_af2_000000086_0001_23_39_H_._HHH_eva_0415_0001_0000100012_0000001_0 (protein)
chain: SSSEELRIAYKLAVRLLHFEARGLSEEQLEEIARKIEEEAEKRLDPAVSEQLRELLEEFVEEASS
B5: il2ra_site2_2erj_normal_mot_HHH_b1_00612_000000025_0001_42_56_H_._HHH_b2_02466_0001_0001000046_0000001_0 (protein)
chain: SSSSSDEEEVFQLVSELAARLAHVDEEEARKLLEEAEELARELGNEILERYLELAHREASSSSSS
B6: il2ra_site1_2b5i_sap_12_mot_ab7d8a294c6210bf73dc5e3fe74162db_0001_af2_000000011_0001_1_14_H_._HHH_b2_05214_af2_0001_0000100003_0000001_0_0001_af2pred_0001_af2pr … (protein)
chain: SSSSSELAEEALELLREADELFKNGDEEEAEKVLEEAERIAEEGGNRSLLKLLRSALRLIRSSSS
B7: il2ra_site2_3nfp_normal_mot_HHH_b2_06150_000000217_0001_39_53_H_._HHH_b1_06685_0001_0000300024_0000001_0 (protein)
chain: SSSSDEEERRVKELLERVEEAIEKGDEELAQRLLAEATHIVFKNRNSELFYLIAELLLELRSSSS
B8: il2ra_site1_1z92_sap_15_mot_HHH_b2_05498_000000253_0001_19_35_H_._HHH_b1_00069_0001_0001500068_0000001_0_0001_af2pred_0001_af2pred_1 (protein)
chain: SEEEEHIRELIEQIPDPELAEAIKKDFEQALERGIPPERVVRALLRAARLDGDPHAEELLEKALR
B9: il2ra_site1_1z92_normal_mot_3d621733409fa4d2bc95fa1761ba6d8e_0001_af2_000000005_0001_1_12_H_._HHH_b2_07461_af2_0001_0000100001_0000001_0_af2pred_0001_af2pred (protein)
chain: SSSSSDNAKKVARLLKELQEAFENGDEEEARRLAEELLELAEENGSKSLARTAELVLRELSSSSS
B10: il2ra_site1_1z92_normal_mot_HHH_b1_07526_000000113_0001_40_57_H_._a65054f6448b340cf30ff5d9204e8553_0001_0001_0000100005_0000001_0 (protein)
chain: DEEEERVKEEIRRKNPRVVRNLEIAERAARRLGAPPEEILKALIRFAEFLGDPEAAELLQEVLEK

molecular target: il2ra, P01589; assay: yeast display titration

Apparent Kd, inactive:
B1 no binding seen
B2 no binding seen
B3 no binding seen
B4 no binding seen
B5 no binding seen
B6 no binding seen
B7 no binding seen
B8 no binding seen
B9 no binding seen
B10 no binding seen

2 entries picked at random from those above:
Apparent Kd, inactive:
B3 no binding seen
B7 no binding seen
